This note sets out measurements from paper PMC2817451.

The chains behind the UniProt entries cited, without tags or fusion partners. Residues count along the entry.
UniProt P07766, residues 23-207: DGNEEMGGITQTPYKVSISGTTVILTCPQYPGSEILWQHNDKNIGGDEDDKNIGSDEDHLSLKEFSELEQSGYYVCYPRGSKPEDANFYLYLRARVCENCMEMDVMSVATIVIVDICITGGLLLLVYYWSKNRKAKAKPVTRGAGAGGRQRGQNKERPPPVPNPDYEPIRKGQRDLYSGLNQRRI
UniProt P08575, residues 26-1306: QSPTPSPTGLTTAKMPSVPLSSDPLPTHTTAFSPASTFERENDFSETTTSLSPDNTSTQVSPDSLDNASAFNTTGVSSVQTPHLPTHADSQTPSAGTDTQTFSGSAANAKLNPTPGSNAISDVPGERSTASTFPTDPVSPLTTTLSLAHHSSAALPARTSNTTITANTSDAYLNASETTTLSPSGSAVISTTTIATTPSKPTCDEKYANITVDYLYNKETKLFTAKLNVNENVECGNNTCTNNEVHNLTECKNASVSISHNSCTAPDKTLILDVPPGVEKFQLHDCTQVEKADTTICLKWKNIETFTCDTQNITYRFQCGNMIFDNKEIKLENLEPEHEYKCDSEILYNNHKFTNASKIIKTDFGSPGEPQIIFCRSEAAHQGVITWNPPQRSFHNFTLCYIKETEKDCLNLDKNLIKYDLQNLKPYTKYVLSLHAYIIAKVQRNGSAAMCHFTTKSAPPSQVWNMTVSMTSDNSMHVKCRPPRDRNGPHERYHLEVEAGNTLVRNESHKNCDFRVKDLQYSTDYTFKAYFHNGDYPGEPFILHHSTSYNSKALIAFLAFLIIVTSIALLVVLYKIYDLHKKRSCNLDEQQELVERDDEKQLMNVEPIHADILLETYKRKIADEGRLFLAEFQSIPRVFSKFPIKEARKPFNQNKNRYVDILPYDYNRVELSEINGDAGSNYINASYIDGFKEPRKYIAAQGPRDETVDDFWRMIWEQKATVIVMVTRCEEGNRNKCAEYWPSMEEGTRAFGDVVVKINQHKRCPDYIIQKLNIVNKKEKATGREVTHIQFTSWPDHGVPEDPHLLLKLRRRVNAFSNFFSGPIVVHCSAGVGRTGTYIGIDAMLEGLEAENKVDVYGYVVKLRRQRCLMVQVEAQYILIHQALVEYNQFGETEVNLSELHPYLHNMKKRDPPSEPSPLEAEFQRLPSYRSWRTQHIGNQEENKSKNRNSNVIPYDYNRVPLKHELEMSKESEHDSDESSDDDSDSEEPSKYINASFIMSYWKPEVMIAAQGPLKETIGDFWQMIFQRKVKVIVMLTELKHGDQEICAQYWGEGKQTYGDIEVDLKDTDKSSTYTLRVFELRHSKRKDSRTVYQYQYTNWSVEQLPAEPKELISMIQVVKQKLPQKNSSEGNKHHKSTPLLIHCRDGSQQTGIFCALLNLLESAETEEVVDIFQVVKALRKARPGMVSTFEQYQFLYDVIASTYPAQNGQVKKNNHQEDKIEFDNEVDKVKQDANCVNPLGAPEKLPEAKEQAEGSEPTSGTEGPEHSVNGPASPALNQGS
UniProt P41597: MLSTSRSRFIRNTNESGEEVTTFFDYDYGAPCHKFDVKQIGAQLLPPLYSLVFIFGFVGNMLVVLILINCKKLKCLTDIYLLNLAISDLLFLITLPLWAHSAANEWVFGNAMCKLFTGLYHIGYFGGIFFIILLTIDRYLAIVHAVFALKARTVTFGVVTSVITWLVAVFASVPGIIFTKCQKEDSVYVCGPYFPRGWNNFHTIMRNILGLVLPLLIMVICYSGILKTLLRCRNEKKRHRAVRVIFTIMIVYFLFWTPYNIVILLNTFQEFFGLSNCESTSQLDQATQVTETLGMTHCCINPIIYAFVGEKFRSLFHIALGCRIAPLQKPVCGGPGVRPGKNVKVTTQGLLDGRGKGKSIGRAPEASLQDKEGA
UniProt P49682: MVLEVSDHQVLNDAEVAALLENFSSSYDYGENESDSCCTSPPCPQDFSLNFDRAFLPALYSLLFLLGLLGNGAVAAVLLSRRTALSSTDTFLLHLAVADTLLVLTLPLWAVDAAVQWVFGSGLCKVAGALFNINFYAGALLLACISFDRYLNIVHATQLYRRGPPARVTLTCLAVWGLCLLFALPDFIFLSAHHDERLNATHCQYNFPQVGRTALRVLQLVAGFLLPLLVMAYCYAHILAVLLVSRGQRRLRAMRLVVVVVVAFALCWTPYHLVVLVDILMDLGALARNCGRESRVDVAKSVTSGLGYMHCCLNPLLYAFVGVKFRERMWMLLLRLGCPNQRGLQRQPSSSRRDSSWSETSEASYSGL

No constants are given. Whether binding was seen depends on the method and setting. In cells and extracts the contact can be indirect. Some results given as binding are weak or reduced against the parent protein; the word gives no strength.

In assay [1] the target is CD3ɛ subunit of the T cell receptor complex (human (endogenous in activated peripheral blood T cells)) (UniProt P07766). Put plainly: FRET or BRET; flow cytometric FRET on activated T cells stimulated with 10 nM CCL7; anti-CCR2-PE donor, anti-CD3ɛ-APC acceptor. (In general: In BRET a luciferase serves as donor, and the signal depends on an acceptor being close.)
Assay [2] has the same target. The assay can be described thus: FRET or BRET; flow cytometric FRET on activated T cells incubated with 10 nM CXCL10 for 20 min at 37 °C; donor anti-CXCR3-PE excited at 488 nm, acceptor APC conjugate (anti-CD3ɛ, or anti-CD45 as control) read at 675 nm; antibodies titrated to saturation; some samples acid washed (pH 2, 4 °C, 5 min).
The target of assay [3] is CD45 (human (endogenous in activated peripheral blood T cells)) (UniProt P08575). Described as above.
Assay [4] addresses CD3ɛ subunit of the T cell receptor complex (human (endogenous in activated peripheral blood T cells)) (UniProt P07766). The assay can be described thus: FRET or BRET; flow cytometric FRET on activated T cells, incubation with CXCL10 omitted; anti-CXCR3-PE donor, anti-CD3ɛ-APC acceptor.

For “CCR2 (from UniProt P41597 1-374) (receptor)”, in assay [1], the binding result was “no binding”.

With “chemokine receptor CXCR3 (from UniProt P49682 1-368)”, the results for the binding result in assay [2], in assay [3] and in assay [4] were “binds”, “no binding” and “no binding (condition: without CXCL10 treatment)”, respectively.
